Experimental findings from article PMC12592133 are described below.

By UniProt entry, the sequences of proteins in these tests, tags left out. Residues count along the entry.
UniProt P48678, residues 1-647: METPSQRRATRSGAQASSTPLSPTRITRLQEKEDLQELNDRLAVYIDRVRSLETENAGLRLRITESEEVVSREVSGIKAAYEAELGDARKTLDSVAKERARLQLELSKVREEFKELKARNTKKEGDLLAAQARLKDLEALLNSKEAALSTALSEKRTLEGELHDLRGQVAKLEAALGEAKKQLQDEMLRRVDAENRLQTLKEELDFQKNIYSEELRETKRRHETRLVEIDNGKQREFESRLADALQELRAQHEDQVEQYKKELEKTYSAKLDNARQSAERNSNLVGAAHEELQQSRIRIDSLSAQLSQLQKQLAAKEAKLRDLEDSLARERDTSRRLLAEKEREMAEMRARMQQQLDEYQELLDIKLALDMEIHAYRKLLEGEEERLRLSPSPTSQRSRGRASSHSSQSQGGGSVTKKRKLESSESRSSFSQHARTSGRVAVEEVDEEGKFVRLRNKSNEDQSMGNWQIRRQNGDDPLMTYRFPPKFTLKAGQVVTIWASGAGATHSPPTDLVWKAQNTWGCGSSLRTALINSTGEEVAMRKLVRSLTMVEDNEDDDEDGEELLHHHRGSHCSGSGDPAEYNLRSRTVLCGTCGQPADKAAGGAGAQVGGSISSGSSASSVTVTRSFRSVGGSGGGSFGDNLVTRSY

The test addresses lamin A/C (mouse (endogenous in RAW264.7)) (UniProt P48678). Description: co-IP; RAW264.7 cells exposed to S. stercoralis iL3 for the indicated periods; RIPA lysates immunoprecipitated with anti-lamin A/C antibody (2.5 μg/ml, 3-4 h, 4 °C), protein A+G agarose beads, washed 5 times with cold TBS; blot probed with anti-PKCζ, stripped and reprobed with anti-lamin A.

No constants are given. Whether binding was seen depends on the method and setting. Binding seen in cells or lysates may run through a third protein. Some results given as binding are weak or reduced against the parent protein; the word gives no strength.

B1: protein kinase C zeta isoform (PKCζ) (enzyme, UniProt Q02956 1-592)
chain: MPSRTDPKMDRSGGRVRLKAHYGGDILITSVDAMTTFKDLCEEVRDMCGLHQQHPLTLKWVDSEGDPCTVSSQMELEEAFRLVCQGRDEVLIIHVFPSIPEQPGMPCPGEDKSIYRRGARRWRKLYRANGHLFQAKRFNRGAYCGQCSERIWGLSRQGYRCINCKLLVHKRCHVLVPLTCRRHMDSVMPSQEPPVDDKNDGVDLPSEETDGIAYISSSRKHDNIKDDSEDLKPVIDGVDGIKISQGLGLQDFDLIRVIGRGSYAKVLLVRLKKNDQIYAMKVVKKELVHDDEDIDWVQTEKHVFEQASSNPFLVGLHSCFQTTSRLFLVIEYVNGGDLMFHMQRQRKLPEEHARFYAAEICIALNFLHERGIIYRDLKLDNVLLDADGHIKLTDYGMCKEGLGPGDTTSTFCGTPNYIAPEILRGEEYGFSVDWWALGVLMFEMMAGRSPFDIITDNPDMNTEDYLFQVILEKPIRIPRFLSVKASHVLKGFLNKDPKERLGCRPQTGFSDIKSHAFFRSIDWDLLEKKQTLPPFQPQITDDYGLDNFDTQFTSEPVQLTPDDEDVIKRIDQSEFEGFEYINPLLLSAEESV
Regarding B1, the binding entry is recorded as “binds”.
